PubChem BioAssay AID1259405 | NCATS | 2018
The deposit covers about 50,000 reagents; shown is an unselected part. Of all reagents, about 4,000 (8%) got an active call. 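Mouse siRNA library applied to hamster cells; one well for each siRNA.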

- Screen: 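Knock-downs that lift recombinant protein yield in hamster ovary cells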 (primary screen)
- Cells: Chinese hamster CHO-K1 ovary cells with stable secreted eGFP expression
- Knock-down reagent: single siRNA against mouse genes, 0.8 pmol siRNA per well (2 µl of 400 nM stock)
- Time to read-out: 3 days
- Detection: 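Per-well intracellular GFP measured by laser scanning cytometry, plus viability from ATP luminescence, each relative to plate median of non-targeting control wells, in %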
- Scale: GFP, % of control: higher = more GFP per well, higher productivity; viability (ATP), % of control: higher = more viable cells (more ATP)
- Hit rule: 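Called active when intracellular GFP, relative to negative control, is at or above 120%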

| gene | PubChem SID | GFP, % of control | viability (ATP), % of control | outcome |
| --- | --- | --- | --- | --- |
| Erbin | SID363540097 | 59 | 68 | inactive |
| Erbin | SID363561398 | 42.7 | 43.1 | inactive |
| Erbin | SID363564434 | 72.4 | 82.2 | inactive |
| Thop1 | SID363574532 | 80.8 | 110 | inactive |
| Thop1 | SID363575588 | 106 | 105 | inactive |
| Thop1 | SID363580164 | 145 | 86.3 | active |
| Snhg11 | SID363542829 | 44.1 | 41.8 | inactive |
| Snhg11 | SID363546346 | 91.4 | 86.1 | inactive |
| Snhg11 | SID363548102 | 102 | 84.4 | inactive |
| Csf2rb2 | SID363544133 | 95.4 | 50.2 | inactive |
| Csf2rb2 | SID363550461 | 74.3 | 87.9 | inactive |
| Csf2rb2 | SID363557010 | 66.2 | 67.9 | inactive |
| Herc3 | SID363541851 | 102 | 65.4 | inactive |
| Herc3 | SID363553443 | 74.9 | 79.1 | inactive |
| Herc3 | SID363566767 | 38.8 | 42.7 | inactive |
| Slc11a2 | SID363574877 | 31.4 | 24.9 | inactive |
| Slc11a2 | SID363575933 | 49.2 | 64.7 | inactive |
| Slc11a2 | SID363580509 | 96.9 | 83.3 | inactive |
| Lhb | SID363541285 | 96.6 | 65.3 | inactive |
| Lhb | SID363555912 | 152 | 72.4 | active |
| Lhb | SID363566201 | 73.5 | 32.2 | inactive |
| Tbx20 | SID363540881 | 69.4 | 68.8 | inactive |
| Tbx20 | SID363555508 | 75.3 | 68.5 | inactive |
| Tbx20 | SID363565797 | 84.7 | 62.4 | inactive |
| Ptbp1 | SID363569046 | 113 | 103 | inactive |
| Ptbp1 | SID363583478 | 0.00713 | 89.3 | inactive |
| Smad2 | SID363540994 | 84.5 | 58.3 | inactive |
| Smad2 | SID363555621 | 65.8 | 61.3 | inactive |
| Smad2 | SID363565910 | 79.7 | 61 | inactive |
| Prdx5 | SID363568733 | 102 | 81.4 | inactive |
| Prdx5 | SID363576125 | 39.9 | 39.1 | inactive |
| Prdx5 | SID363578941 | 88.3 | 62.1 | inactive |
| Afmid | SID363545706 | 69.1 | 58.4 | inactive |
| Afmid | SID363549219 | 71.3 | 80.2 | inactive |
| Afmid | SID363563025 | 55.9 | 63.4 | inactive |
| Ltbp2 | SID363582643 | 61.8 | 76 | inactive |
| Ltbp2 | SID363584403 | 70.4 | 99.6 | inactive |
| Tmem150b | SID363546954 | 83.3 | 88.8 | inactive |
| Tmem150b | SID363549766 | 122 | 63.5 | active |
| Tmem150b | SID363587820 | 208 | 159 | active |
| Lhcgr | SID363568774 | 120 | 80.9 | active |
| Lhcgr | SID363576166 | 87.5 | 57.9 | inactive |
| Lhcgr | SID363578982 | 71.8 | 76.8 | inactive |
| Moxd2 | SID363545357 | 71.9 | 98.9 | inactive |
| Moxd2 | SID363548870 | 64.3 | 67.7 | inactive |
| Moxd2 | SID363562676 | 50 | 48.3 | inactive |
| Txnrd3 | SID363573021 | 69.1 | 70.2 | inactive |
| Txnrd3 | SID363577597 | 86.8 | 62.6 | inactive |
| Txnrd3 | SID363581117 | 56.1 | 65.7 | inactive |
| Glipr1l2 | SID363542473 | 87.1 | 89.3 | inactive |
| Glipr1l2 | SID363551964 | 82.6 | 52.2 | inactive |
| Glipr1l2 | SID363559569 | 93.8 | 97.9 | inactive |
| Neu1 | SID363545540 | 72.6 | 62.6 | inactive |
| Neu1 | SID363549053 | 59.7 | 67.4 | inactive |
| Neu1 | SID363562859 | 50.5 | 54.7 | inactive |
| Gclc | SID363572786 | 59.4 | 45.2 | inactive |
| Gclc | SID363578066 | 78.2 | 73.8 | inactive |
| Gclc | SID363582290 | 79.7 | 134 | inactive |
| Igfbp3 | SID363540296 | 83.8 | 53.6 | inactive |
| Igfbp3 | SID363542048 | 79 | 79.4 | inactive |
| Igfbp3 | SID363566964 | 88.3 | 79.9 | inactive |
| Hif1an | SID363568786 | 89.6 | 118 | inactive |
| Hif1an | SID363576178 | 65.4 | 70 | inactive |
| Hif1an | SID363578994 | 77.5 | 79.7 | inactive |
| Sult2b1 | SID363570554 | 115 | 89.6 | inactive |
| Sult2b1 | SID363579354 | 89.1 | 45.3 | inactive |
| Sult2b1 | SID363583226 | 126 | 111 | active |
| Aim2 | SID363555214 | 40.5 | 75.3 | inactive |
| Aim2 | SID363563875 | 98.2 | 79.7 | inactive |
| Aim2 | SID363587421 | 90.9 | 78.2 | inactive |
| Szrd1 | SID363539631 | 90.9 | 85.7 | inactive |
| Szrd1 | SID363560932 | 63.1 | 85.8 | inactive |
| Szrd1 | SID363565022 | 88.1 | 58.4 | inactive |
| Cln3 | SID363582581 | 73.3 | 95.9 | inactive |
| Cln3 | SID363584341 | 65.8 | 86.8 | inactive |
| Map3k12 | SID363570717 | 91.8 | 79.6 | inactive |
| Map2k7 | SID363570711 | 80 | 95.9 | inactive |
| Thbs3 | SID363582485 | 153 | 131 | active |
| Thbs3 | SID363584245 | 73.6 | 73.3 | inactive |
| Parl | SID363544164 | 109 | 54.5 | inactive |
| Parl | SID363550492 | 66.6 | 75.9 | inactive |
| Parl | SID363557041 | 68.9 | 57.8 | inactive |
| Crlf1 | SID363582354 | 100 | 114 | inactive |
| Crlf1 | SID363584114 | 60 | 57.3 | inactive |

A portion of the results above:
| gene | PubChem SID | GFP, % of control | viability (ATP), % of control | outcome |
| --- | --- | --- | --- | --- |
| Neu1 | SID363545540 | 72.6 | 62.6 | inactive |
| Neu1 | SID363549053 | 59.7 | 67.4 | inactive |
| Neu1 | SID363562859 | 50.5 | 54.7 | inactive |
| Gclc | SID363572786 | 59.4 | 45.2 | inactive |
| Gclc | SID363578066 | 78.2 | 73.8 | inactive |
| Gclc | SID363582290 | 79.7 | 134 | inactive |
| Igfbp3 | SID363540296 | 83.8 | 53.6 | inactive |
| Igfbp3 | SID363542048 | 79 | 79.4 | inactive |
| Igfbp3 | SID363566964 | 88.3 | 79.9 | inactive |
| Hif1an | SID363568786 | 89.6 | 118 | inactive |
| Hif1an | SID363576178 | 65.4 | 70 | inactive |
| Hif1an | SID363578994 | 77.5 | 79.7 | inactive |
